Experimental findings from publication PMC10472690 are described below.

Protein sequences, listed by entry. Tags and fused reporters are not part of them. Residues count along the entry.
UniProt P35222: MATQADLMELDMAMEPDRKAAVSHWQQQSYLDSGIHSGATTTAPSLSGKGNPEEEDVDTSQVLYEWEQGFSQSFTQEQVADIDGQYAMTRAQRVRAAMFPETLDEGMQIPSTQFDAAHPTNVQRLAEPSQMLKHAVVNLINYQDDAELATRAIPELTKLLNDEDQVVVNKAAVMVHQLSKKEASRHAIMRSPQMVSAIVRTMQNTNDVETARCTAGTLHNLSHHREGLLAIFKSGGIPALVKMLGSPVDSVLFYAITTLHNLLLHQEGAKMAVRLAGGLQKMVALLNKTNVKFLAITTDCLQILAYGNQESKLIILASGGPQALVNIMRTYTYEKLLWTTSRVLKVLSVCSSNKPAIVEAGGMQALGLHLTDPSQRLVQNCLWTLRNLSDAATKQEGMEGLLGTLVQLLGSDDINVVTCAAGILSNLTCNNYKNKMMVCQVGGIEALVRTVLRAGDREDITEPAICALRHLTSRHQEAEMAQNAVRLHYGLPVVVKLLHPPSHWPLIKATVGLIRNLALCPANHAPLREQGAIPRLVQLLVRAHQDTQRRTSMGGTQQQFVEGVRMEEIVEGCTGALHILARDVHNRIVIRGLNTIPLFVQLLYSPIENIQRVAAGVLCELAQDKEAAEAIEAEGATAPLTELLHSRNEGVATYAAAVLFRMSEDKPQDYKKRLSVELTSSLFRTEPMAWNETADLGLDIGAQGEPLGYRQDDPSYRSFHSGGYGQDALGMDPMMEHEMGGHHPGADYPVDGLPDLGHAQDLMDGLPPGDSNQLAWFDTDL
UniProt Q02248: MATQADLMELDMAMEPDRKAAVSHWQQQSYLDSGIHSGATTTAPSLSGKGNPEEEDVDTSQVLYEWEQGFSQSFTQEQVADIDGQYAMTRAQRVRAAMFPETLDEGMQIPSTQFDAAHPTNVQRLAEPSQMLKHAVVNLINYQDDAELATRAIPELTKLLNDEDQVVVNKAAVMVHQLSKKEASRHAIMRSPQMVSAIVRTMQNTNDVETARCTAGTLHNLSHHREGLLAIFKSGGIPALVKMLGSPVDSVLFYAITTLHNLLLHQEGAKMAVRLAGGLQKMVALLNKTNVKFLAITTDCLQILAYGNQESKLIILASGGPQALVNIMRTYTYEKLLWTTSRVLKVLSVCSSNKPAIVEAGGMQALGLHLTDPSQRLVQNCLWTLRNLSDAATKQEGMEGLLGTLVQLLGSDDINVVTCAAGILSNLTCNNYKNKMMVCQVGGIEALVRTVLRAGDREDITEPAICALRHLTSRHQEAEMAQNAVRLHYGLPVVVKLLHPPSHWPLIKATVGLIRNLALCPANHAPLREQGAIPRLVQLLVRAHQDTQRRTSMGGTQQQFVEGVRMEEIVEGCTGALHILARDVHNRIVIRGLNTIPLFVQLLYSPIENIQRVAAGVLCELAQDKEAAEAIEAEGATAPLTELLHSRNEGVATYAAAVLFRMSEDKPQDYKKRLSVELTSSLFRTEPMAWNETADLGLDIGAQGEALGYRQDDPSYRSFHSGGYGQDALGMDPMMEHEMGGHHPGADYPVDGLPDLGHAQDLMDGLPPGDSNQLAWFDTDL
UniProt Q9NZQ7, residues 19-290: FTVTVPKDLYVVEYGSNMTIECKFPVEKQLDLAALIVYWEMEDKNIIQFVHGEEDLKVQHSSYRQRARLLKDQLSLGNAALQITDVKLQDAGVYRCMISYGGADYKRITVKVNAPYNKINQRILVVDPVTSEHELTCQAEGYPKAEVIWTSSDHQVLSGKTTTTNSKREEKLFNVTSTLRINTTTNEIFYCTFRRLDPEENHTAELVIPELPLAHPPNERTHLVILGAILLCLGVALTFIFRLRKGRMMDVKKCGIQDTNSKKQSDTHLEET
UniProt O15169: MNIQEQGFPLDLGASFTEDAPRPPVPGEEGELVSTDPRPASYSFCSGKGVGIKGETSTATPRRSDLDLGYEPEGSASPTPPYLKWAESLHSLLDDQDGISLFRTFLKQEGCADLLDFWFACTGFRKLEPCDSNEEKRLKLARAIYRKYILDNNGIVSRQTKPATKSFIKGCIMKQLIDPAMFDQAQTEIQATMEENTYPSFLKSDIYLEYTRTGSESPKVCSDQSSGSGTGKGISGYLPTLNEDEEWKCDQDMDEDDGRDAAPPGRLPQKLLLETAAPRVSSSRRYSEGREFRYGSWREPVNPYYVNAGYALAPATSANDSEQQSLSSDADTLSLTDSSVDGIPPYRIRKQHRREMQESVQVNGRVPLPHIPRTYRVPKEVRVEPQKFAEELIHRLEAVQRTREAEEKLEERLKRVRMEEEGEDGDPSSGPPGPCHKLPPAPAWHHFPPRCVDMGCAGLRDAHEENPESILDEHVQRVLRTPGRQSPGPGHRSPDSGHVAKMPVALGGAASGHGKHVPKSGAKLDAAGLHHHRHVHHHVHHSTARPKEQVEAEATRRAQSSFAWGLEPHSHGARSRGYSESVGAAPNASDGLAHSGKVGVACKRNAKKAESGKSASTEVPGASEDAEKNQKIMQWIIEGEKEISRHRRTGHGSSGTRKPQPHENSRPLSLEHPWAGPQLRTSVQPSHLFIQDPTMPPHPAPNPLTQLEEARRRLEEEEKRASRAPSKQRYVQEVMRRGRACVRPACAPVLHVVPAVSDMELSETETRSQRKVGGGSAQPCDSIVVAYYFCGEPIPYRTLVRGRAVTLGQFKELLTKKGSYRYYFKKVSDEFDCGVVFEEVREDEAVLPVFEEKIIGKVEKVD

The target of test [1] is β-catenin of the co-immunoprecipitation with the degradation complex (cell line not given) (UniProt P35222). Kind of test: co-IP; immunoprecipitation with β-catenin antibody on protein A/G beads from cell lysates, overnight at 4 °C, four washes with PBST, then immunoblotting; CTRL or FAT4 overexpression cells.
The target of test [2] is β-catenin, human, in ME180 cells (human (endogenous in ME180)) (UniProt P35222). The description is as above.
For test [3], the target named is β-catenin, mouse, in U14 cells (mouse (endogenous in U14)) (UniProt Q02248). The test is described as above.
Test [4] addresses PD-L1 of the co-immunoprecipitation with GSK-3β and STT3A (cell line not given) (UniProt Q9NZQ7). As to the kind of experiment: co-IP; immunoprecipitation with PD-L1 antibody on protein A/G beads from cell lysates, overnight at 4 °C, four washes with PBST, then immunoblotting with GSK-3β and STT3A antibodies; CTRL or FAT4 overexpression cells.

These are yes or no findings as the source states them, for the method shown. Binding seen in cells or lysates may run through a third protein. Some binding calls cover weakened binding; strength is not graded here.

As for AXIN1 (from UniProt O15169 1-862), the binding entry in test [1] is recorded as “binds”.
Regarding “FAT4 (FAT Atypical Cadherin 4), human, in ME180 cells (from UniProt Q6V0I7 39-4981)”, in test [2], the binding result is recorded as “binds”.
Turning to “FAT4, mouse, in U14 cells (from UniProt Q2PZL6 43-4981)”, in test [3], the binding entry is on record as “binds”.

B1: STT3A (enzyme, UniProt P46977 1-705)
chain: MTKFGFLRLSYEKQDTLLKLLILSMAAVLSFSTRLFAVLRFESVIHEFDPYFNYRTTRFLAEEGFYKFHNWFDDRAWYPLGRIIGGTIYPGLMITSAAIYHVLHFFHITIDIRNVCVFLAPLFSSFTTIVTYHLTKELKDAGAGLLAAAMIAVVPGYISRSVAGSYDNEGIAIFCMLLTYYMWIKAVKTGSICWAAKCALAYFYMVSSWGGYVFLINLIPLHVLVLMLTGRFSHRIYVAYCTVYCLGTILSMQISFVGFQPVLSSEHMAAFGVFGLCQIHAFVDYLRSKLNPQQFEVLFRSVISLVGFVLLTVGALLMLTGKISPWTGRFYSLLDPSYAKNNIPIIASVSEHQPTTWSSYYFDLQLLVFMFPVGLYYCFSNLSDARIFIIMYGVTSMYFSAVMVRLMLVLAPVMCILSGIGVSQVLSTYMKNLDISRPDKKSKKQQDSTYPIKNEVASGMILVMAFFLITYTFHSTWVTSEAYSSPSIVLSARGGDGSRIIFDDFREAYYWLRHNTPEDAKVMSWWDYGYQITAMANRTILVDNNTWNNTHISRVGQAMASTEEKAYEIMRELDVSYVLVIFGGLTGYSSDDINKFLWMVRIGGSTDTGKHIKENDYYTPTGEFRVDREGSPVLLNCLMYKMCYYRFGQVYTEAKRPPGFDRVRNAEIGNKDFELDVLEEAYTTEHWLVRIYKVKDLDNRGLSRT
B1: the binding result in test [4] is listed as “binds”.
